Source: publication PMC5700166

Columns and labels:
[1] = tested on: Ap-NF-kB full length (Exaiptasia pallida (Aiptasia)); assay: EMSA; conditions: 293 cell extract, no high level of binding, unlike delta427; EMSA 30 min at 30 °C: 293 lysates and anemone lysates in either 10 mM Tris pH 7.4, 50 mM NaCl, 1 mM DTT, 1 mM EDTA; protein in a lysate after overexpression; protein details: FLAG (N-terminal); label: 32P (5' end, T4 PNK)
[2] = tested on: Ap-NF-kB delta427 (Exaiptasia pallida (Aiptasia)); assay: EMSA; conditions: 293 cell extract, high level, comparable to Nv-NF-kB; EMSA 30 min at 30 °C: 293 lysates and anemone lysates in either 10 mM Tris pH 7.4, 50 mM NaCl, 1 mM DTT, 1 mM EDTA; protein in a lysate after overexpression; protein details: FLAG (N-terminal); label: 32P (5' end, T4 PNK)

“TCGAGAGGTCGGGGAATTCCCCCCCCG / TCGACGGGGGGGGAATTCCCCGACCTC [NF-kB-site consensus EMSA probe]”: binds more weakly [1]; binds [2].

The exact form of at least one protein or probe is not confirmed. Results from cells or extracts need not show a direct contact. For some assays here: A weaker result is weaker than the reference pair of the same experiment.
